US20160220637A1 (Ipsen Pharma S.A.S., priority 2010, published 2016)
Some peptides are written in HELM: one residue between dots, names in brackets for other building blocks, links after the first $.

experiment: peptide synthesis; conditions: whole synthesis

Point of comparison: H-Apc-D-Bal-D-Trp-Taz-Lys-NH2, “purity (crude or final not stated)” value 99%. Against it:
- H-Apc-D-1Nal-D-1Nal-Phe-Apc-NH2 — lower, 95%
- H-Apc-D-1Nal-D-1Nal-Phe-Lys-NH2 — the same, 99%
- H-Apc-D-1Nal-D-2Nal-Phe-Apc-NH2 — lower, 96%
- H-Apc-D-1Nal-D-Trp-2Thi-Apc-NH2 — lower, 97%
- H-Apc-D-1Nal-D-Trp-2Thi-Lys-NH2 — the same, 99%
- H-Apc-D-1Nal-D-Trp-2Thi-NH2 — lower, 98%
- H-Apc-D-1Nal-D-Trp-Phe-Apc-NH2 — lower, 98%
- H-Apc-D-1Nal-D-Trp-Phe-Lys-NH2 — lower, 98%
- H-Apc-D-1Nal-D-Trp-Taz-Apc-NH2 — the same, 99%
- H-Apc-D-1Nal-D-Trp-Taz-Lys-NH2 — the same, 99%
- H-Apc-D-1Nal-D-Trp-Taz-NH2 — the same, 99%
- H-Apc-D-2Nal-D-Trp-2Thi-NH2 — lower, 95%
- H-Apc-D-2Nal-D-Trp-Phe-Lys-NH2 — lower, 98%
- H-Apc-D-2Nal-D-Trp-Taz-NH2 — lower, 97%
- H-Apc-D-Bal-D-1Nal-Phe-Apc-NH2 — lower, 96%
- H-Apc-D-Bal-D-1Nal-Phe-Lys-NH2 — the same, 99%
- H-Apc-D-Bal-D-2Nal-Phe-Apc-NH2 — lower, 94%
- H-Apc-D-Bal-D-2Nal-Phe-Lys-NH2 — lower, 98%
- H-Apc-D-Bal-D-Trp-2Thi-Apc-NH2 — lower, 98%
- H-Apc-D-Bal-D-Trp-2Thi-Lys-NH2 — lower, 98%
- H-Apc-D-Bal-D-Trp-2Thi-NH2 — lower, 97%
- H-Apc-D-Bal-D-Trp-Phe-Apc-NH2 — lower, 98%
- H-Apc-D-Bal-D-Trp-Phe-Lys-NH2 — the same, 99%
- H-Apc-D-Bal-D-Trp-Phe-NH2 — the same, 99%
- H-Apc-D-Bal-D-Trp-Taz-Apc-NH2 — lower, 98%
- H-Apc-D-Bal-D-Trp-Taz-NH2 — the same, 99%
- H-Inp-D-1Nal-D-Trp-2Thi-Apc-NH2 — lower, 97%
- H-Inp-D-1Nal-D-Trp-2Thi-Lys-NH2 — the same, 99%
- H-Inp-D-1Nal-D-Trp-2Thi-NH2 — lower, 98%
- H-Inp-D-1Nal-D-Trp-3Pal-Lys-NH2 — lower, 96%
- H-Inp-D-1Nal-D-Trp-3Pal-NH2 — lower, 98%
- H-Inp-D-1Nal-D-Trp-Phe-Apc-NH2 — lower, 98%
- H-Inp-D-2Nal-D-Bal-Phe-NH2 — the same, 99%
- H-Inp-D-2Nal-D-Bpa-Phe-Lys-NH2 — the same, 99%
- H-Inp-D-2Nal-D-Dip-Phe-NH2 — the same, 99%
- H-Inp-D-2Nal-D-Trp-2Thi-NH2 — the same, 99%
- H-Inp-D-2Nal-D-Trp-3Pal-Lys-NH2 — lower, 97%
- H-Inp-D-2Nal-D-Trp-3Pal-NH2 — the same, 99%
- H-Inp-D-2Nal-D-Trp-4Pal-Lys-NH2 — the same, 99%
- H-Inp-D-2Nal-D-Trp-4Pal-NH2 — lower, 98%
- H-Inp-D-2Nal-D-Trp-Orn-Lys-NH2 — lower, 98%
- H-Inp-D-2Nal-D-Trp-Pff-Lys-NH2 — lower, 98%
- H-Inp-D-2Nal-D-Trp-Pff-NH2 — the same, 99%
- H-Inp-D-2Nal-D-Trp-Phe-Apc-NH2 — lower, 98%
- H-Inp-D-2Nal-D-Trp-Thi-Lys-NH2 — lower, 98%
- H-Inp-D-2Nal-D-Trp-Thr(Bzl)-Lys-NH2 — lower, 98%
- H-Inp-D-2Nal-D-Trp-Thr(Bzl)-NH2 — the same, 99%
- H-Inp-D-Bal-D-Trp-2Thi-Apc-NH2 — lower, 97%
- H-Inp-D-Bal-D-Trp-2Thi-Lys-NH2 — the same, 99%
- H-Inp-D-Bal-D-Trp-Phe-Apc-NH2 — lower, 97%
- H-Inp-D-Bal-D-Trp-Phe-Lys-NH2 — the same, 99%
- H-Inp-D-Bal-D-Trp-Phe-NH2 — lower, 97%
- H-Inp-D-Bal-D-Trp-Taz-Apc-NH2 — the same, 99%
- H-Inp-D-Bal-D-Trp-Taz-Lys-NH2 — the same, 99%
- H-Inp-D-Bip-D-Trp-Phe-Lys-NH2 — the same, 99%
- H-Inp-D-Bip-D-Trp-Phe-NH2 — the same, 99%
- H-Inp-D-Bpa-D-Trp-Phe-Lys-NH2 — lower, 95%
- H-Inp-D-Dip-D-Trp-Phe-Lys-NH2 — lower, 98%
- H-Inp-D-Dip-D-Trp-Phe-NH2 — lower, 98%
- PEPTIDE1{[Apc].[D-1Nal].[dW].F.[am]}$$$$V2.0 — the same, 99%
- PEPTIDE1{[Inp].[D-1Nal].[dW].[Taz].K.[am]}$$$$V2.0 — the same, 99%
- PEPTIDE1{[Inp].[D-1Nal].[dW].[Taz].[Apc].[am]}$$$$V2.0 — lower, 98%
- PEPTIDE1{[Inp].[D-2Nal].[dW].[Taz].K.[am]}$$$$V2.0 — lower, 97%
- PEPTIDE1{[Inp].[D-2Nal].[dW].[Taz].[am]}$$$$V2.0 — lower, 98%
